Measured values reported in patent US20090312521A1 (priority 2004, published 2009).
Non-standard residues stand in square brackets, D forms with d. Residues, ends and D or L forms follow the SMILES beside them.

Type: in vitro ADME, human
Conditions: [MIC(1)/MIC(X)] × [% intact(X)/% intact(1)]

| Compound | index |
| --- | --- |
| CC[C@H](C)[C@H](NC(=O)[C@@H]1CCCN1C(=O)[C@H](CCCNC(=N)N)NC(=O)[C@@H]1CCCN1C(=O)[C@H](Cc1cnc[nH]1)NC(=O)[C@H](CO)NC(=O)[C@@H](NC(=O)[C@@H]1CCCN1C(=O)[C@H](CCCNC(=N)N)NC(=O)[C@@H]1CCCN1C(=O)[C@H](CO)NC(=O)[C@H](Cc1ccc(O)cc1)NC(=O)[C@@H]1CCCN1C(=O)[C@H](CCCNC(=N)N)NC(=O)[C@@H]1CCCN1C(=O)[C@H](CCCCN)NC(=O)CN)[C@@H](C)O)C(=O)N[C@@H](CCCNC(=N)N)C(=O)N[C@H](C(=O)O)C(C)C [Peptide 1, GKPRP YSPRP TSHPR PIRV, reference compound] (H-GKPRPYSPRPTSHPRPIRV-OH) | 1.0 |
| CC[C@H](C)[C@H](NC(=O)[C@@H]1CCCN1C(=O)[C@H](CCCNC(=N)N)NC(=O)[C@@H]1CCCN1C(=O)[C@H](Cc1c[nH]cn1)NC(=O)[C@H](CO)NC(=O)[C@@H](NC(=O)[C@@H]1CCCN1C(=O)[C@H](CCCNC(=N)N)NC(=O)[C@@H]1CCCN1C(=O)[C@H](CO)NC(=O)[C@H](Cc1ccccc1)NC(=O)[C@@H]1CCCN1C(=O)[C@H](CCCNC(=N)N)NC(=O)[C@@H]1CCCN1C(=O)[C@H](CCCCN)NC(=O)CN)[C@@H](C)O)C(=O)N[C@@H](CCCNC(=N)N)C(=O)N[C@H](C(=O)O)C(C)C [Peptide 3, GKPRP FSPRP TSHPR PIRV] (H-GKPRPFSPRPTSHPRPIRV-OH; N-terminus assumed) | 12 |
| CC[C@H](C)[C@H](NC(=O)[C@@H]1CCCN1C(=O)[C@H](CCCNC(=N)N)NC(=O)[C@@H]1CCCN1C(=O)[C@H](Cc1c[nH]cn1)NC(=O)[C@H](CO)NC(=O)[C@@H](NC(=O)[C@@H]1CCCN1C(=O)[C@H](CCCNC(=N)N)NC(=O)[C@@H]1CCCN1C(=O)[C@@H](NC(=O)[C@H](Cc1ccc(O)cc1)NC(=O)[C@@H]1CCCN1C(=O)[C@H](CCCNC(=N)N)NC(=O)[C@@H]1CCCN1C(=O)[C@H](CCCCN)NC(=O)CN)[C@@H](C)O)[C@@H](C)O)C(=O)N[C@@H](CCCNC(=N)N)C(=O)N[C@H](C(=O)O)C(C)C [Peptide 4, GKPRP YTPRP TSHPR PIRV] (H-GKPRPYTPRPTSHPRPIRV-OH; N-terminus assumed) | 19 |
| CC[C@H](C)[C@H](NC(=O)[C@@H]1CCCN1C(=O)[C@H](CCCNC(=N)N)NC(=O)[C@@H]1CCCN1C(=O)[C@H](Cc1c[nH]cn1)NC(=O)[C@H](CO)NC(=O)[C@@H](NC(=O)[C@@H]1CCCN1C(=O)[C@H](CCCNC(=N)N)NC(=O)[C@@H]1CCCN1C(=O)[C@@H](NC(=O)[C@H](Cc1ccccc1)NC(=O)[C@@H]1CCCN1C(=O)[C@H](CCCNC(=N)N)NC(=O)[C@@H]1CCCN1C(=O)[C@H](CCCCN)NC(=O)CN)[C@@H](C)O)[C@@H](C)O)C(=O)N[C@@H](CCCNC(=N)N)C(=O)N[C@H](C(=O)O)C(C)C [Peptide 5, GKPRP FTPRP TSHPR PIRV] (H-GKPRPFTPRPTSHPRPIRV-OH; N-terminus assumed) | 17 |
| CC[C@H](C)[C@H](NC(=O)[C@@H]1CCCN1C(=O)[C@H](CCCNC(=N)N)NC(=O)[C@@H]1CCCN1C(=O)[C@H](Cc1c[nH]cn1)NC(=O)[C@H](CO)NC(=O)[C@@H](NC(=O)[C@@H]1CCCN1C(=O)[C@H](CCCNC(=N)N)NC(=O)[C@@H]1CCCN1C(=O)[C@H](CO)NC(=O)[C@@H](Cc1ccc(O)cc1)NC(=O)[C@@H]1CCCN1C(=O)[C@H](CCCNC(=N)N)NC(=O)[C@@H]1CCCN1C(=O)[C@H](CCCCN)NC(=O)CN)[C@@H](C)O)C(=O)N[C@@H](CCCNC(=N)N)C(=O)N[C@H](C(=O)O)C(C)C [Peptide 6, GKPRP DYSPRP TSHPR PIRV] (H-GKPRP[dY]SPRPTSHPRPIRV-OH; N-terminus assumed) | 5 |
